Laboratory results reported in article PMC7782510.
These are yes or no findings as the source states them, for the method shown. In cells and extracts the contact can be indirect. Some entries that bind do so weakly or less than the wild type.

T1: zinc finger protein 143 (ZNF143) (mouse (endogenous in murine HSPCs)) (UniProt O70230)
T1 sequence: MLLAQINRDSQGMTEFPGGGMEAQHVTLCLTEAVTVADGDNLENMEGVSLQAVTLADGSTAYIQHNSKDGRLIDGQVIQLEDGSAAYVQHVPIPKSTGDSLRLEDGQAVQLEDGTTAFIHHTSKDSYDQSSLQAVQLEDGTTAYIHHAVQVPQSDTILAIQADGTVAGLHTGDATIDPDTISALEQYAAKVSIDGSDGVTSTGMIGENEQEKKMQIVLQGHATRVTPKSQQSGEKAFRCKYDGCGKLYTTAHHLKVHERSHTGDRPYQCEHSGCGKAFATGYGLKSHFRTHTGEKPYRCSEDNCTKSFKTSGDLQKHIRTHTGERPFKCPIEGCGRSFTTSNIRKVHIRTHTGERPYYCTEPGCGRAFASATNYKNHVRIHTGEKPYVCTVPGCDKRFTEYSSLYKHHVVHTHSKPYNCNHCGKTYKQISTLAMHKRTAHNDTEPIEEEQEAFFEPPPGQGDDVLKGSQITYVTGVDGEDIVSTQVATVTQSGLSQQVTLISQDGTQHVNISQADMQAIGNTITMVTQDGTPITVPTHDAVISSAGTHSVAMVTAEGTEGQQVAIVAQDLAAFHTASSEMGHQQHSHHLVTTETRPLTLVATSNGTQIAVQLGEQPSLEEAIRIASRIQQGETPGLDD

T2: CCCTC binding factor (CTCF) (mouse (endogenous in murine HSPCs)) (UniProt Q61164)
T2 sequence: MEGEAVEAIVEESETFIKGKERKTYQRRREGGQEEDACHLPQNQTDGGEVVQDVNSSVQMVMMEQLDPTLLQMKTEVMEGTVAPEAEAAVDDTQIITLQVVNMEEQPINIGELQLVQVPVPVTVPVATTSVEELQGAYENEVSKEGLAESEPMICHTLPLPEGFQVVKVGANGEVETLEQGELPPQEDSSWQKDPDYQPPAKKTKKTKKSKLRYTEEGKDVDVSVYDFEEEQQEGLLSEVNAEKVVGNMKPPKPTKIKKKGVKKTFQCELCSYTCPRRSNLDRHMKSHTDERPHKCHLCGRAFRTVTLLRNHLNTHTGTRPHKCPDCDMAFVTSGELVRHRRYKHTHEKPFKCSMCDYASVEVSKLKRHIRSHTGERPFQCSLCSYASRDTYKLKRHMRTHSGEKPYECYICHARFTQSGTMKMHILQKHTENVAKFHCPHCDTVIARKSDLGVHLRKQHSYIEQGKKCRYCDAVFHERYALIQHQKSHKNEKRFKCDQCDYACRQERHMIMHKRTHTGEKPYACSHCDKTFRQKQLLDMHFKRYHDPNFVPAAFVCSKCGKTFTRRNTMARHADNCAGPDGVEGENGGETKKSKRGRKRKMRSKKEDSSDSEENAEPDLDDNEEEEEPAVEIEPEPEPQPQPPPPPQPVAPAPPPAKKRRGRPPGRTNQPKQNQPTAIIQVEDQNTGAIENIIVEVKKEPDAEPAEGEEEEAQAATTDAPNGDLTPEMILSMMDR

B1: CCCTC binding factor (CTCF) (protein, UniProt Q61164 1-736)
chain: T2 sequence
B2: zinc finger protein 143 (ZNF143) (protein, UniProt O70230 1-638)
chain: T1 sequence

Experiments:
[1] = target: T1, zinc finger protein 143 (ZNF143) (mouse (endogenous in murine HSPCs)); assay: co-IP; reciprocal co-IP of endogenous proteins from murine HSPC (lineage- c-kit+) lysate; IP buffer 50 mM Tris-Cl pH 8.0, 1% NP-40, 5 mM EDTA; antibody pre-bound dynabeads, overnight at 4 °C; five washes; Western blot
[2] = target: T2, CCCTC binding factor (CTCF) (mouse (endogenous in murine HSPCs)); assay: as above

Row | Binder | binding [1] | binding [2]
1 | B1 | binds | 
2 | B2 |  | binds
